{"sequences": {"note": "Amino acid sequences for entries named in this document (tags omitted). A change or cut given only in a name is not applied to a line headed by its entry.", "UniProt P08514": "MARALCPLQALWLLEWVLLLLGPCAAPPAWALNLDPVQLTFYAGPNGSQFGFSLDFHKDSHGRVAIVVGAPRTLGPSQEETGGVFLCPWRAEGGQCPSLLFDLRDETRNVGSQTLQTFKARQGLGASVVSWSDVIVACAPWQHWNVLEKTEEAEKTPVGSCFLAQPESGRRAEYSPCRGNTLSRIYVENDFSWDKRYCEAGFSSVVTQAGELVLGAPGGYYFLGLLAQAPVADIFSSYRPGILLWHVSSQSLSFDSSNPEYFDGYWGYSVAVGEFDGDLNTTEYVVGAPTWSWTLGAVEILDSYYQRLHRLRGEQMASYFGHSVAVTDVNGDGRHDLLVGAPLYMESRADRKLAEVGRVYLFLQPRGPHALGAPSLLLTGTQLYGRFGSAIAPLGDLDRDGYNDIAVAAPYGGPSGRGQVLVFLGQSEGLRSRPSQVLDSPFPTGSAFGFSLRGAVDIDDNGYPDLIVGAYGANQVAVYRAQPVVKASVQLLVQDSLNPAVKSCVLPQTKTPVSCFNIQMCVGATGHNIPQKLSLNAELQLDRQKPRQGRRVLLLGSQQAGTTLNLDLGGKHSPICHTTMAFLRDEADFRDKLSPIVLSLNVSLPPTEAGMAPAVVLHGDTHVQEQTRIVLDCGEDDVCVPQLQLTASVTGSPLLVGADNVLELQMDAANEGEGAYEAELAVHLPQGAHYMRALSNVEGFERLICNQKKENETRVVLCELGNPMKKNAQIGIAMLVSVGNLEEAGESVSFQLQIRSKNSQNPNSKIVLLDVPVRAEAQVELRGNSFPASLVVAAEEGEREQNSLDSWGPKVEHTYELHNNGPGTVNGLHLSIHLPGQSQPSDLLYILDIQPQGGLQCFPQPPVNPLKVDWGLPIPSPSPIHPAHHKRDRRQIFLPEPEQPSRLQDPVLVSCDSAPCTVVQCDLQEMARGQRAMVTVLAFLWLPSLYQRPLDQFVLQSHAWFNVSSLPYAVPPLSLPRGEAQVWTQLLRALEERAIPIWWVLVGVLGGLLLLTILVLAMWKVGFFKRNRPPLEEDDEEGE"}, "source": "paper PMC2582960", "about": "“A Structural Model of the Staphylococcus aureus ClfA–Fibrinogen Interaction Opens New Avenues for the Design of Anti-Staphylococcal Therapeutics” (PLoS Pathogens, 2008)", "biological_target": "platelet integrin αIIbβ3 (UniProt P08514)", "assay": "ELISA; inhibition: αIIbβ3 coated (0.25 µg/well); 10 nM full length Fg added with various concentrations of peptide, RT, 1 h, in TBST with 1% BSA, 2 mM MgCl2, 1 mM CaCl2 and MnCl2; bound Fg detected with anti human Fg antibody; both purified", "note": "No constants are given. Whether binding was seen depends on the method and setting. Some results given as binding are weak or reduced against the parent protein; the word gives no strength.", "data": [{"substance": "Fg γ^1–17 peptide, wild type (Fg γ-chain 395–411) (from UniProt P02679-2 421-437)", "values": [{"measurement": "binding", "value": "binds"}]}]}
